Results as given in article PMC8765320, “Identification of a Proteasome-Targeting Arylsulfonamide with Potential for the Treatment of Chagas’ Disease” (Antimicrobial Agents and Chemotherapy, 2022).

Test system: chymotrypsin-like activity of the T. cruzi proteasome
Assay: Proteasome chymotrypsin-like activity luminescence assay
Format: biochemical, Trypanosoma cruzi
Details: luminescent assay
Experimental: Initially, the impact of compound 1 on the chymotrypsin-like proteolytic activity of the proteasome was assessed using a commercially available indirect enzyme-based luminescent assay. In this assay, activity is monitored in proteasome-enriched T. cruzi epimastigote lysates using Suc-LLVY-aminoluciferin as a substrate ([16]). […] Thus, an alternative route to determine the impact of this arylsulfonamide compound on T. cruzi proteasome function was required.
The effect of inhibitors on the chymotrypsin-like activity of the T. cruzi proteasome was assessed by using a luminescence-based assay, as previously described ([21]).

## COc1ccc(NS(=O)(=O)c2cc(-c3cc(C)n[nH]3)ccc2C)cc1OC [Compound 1]
  interference with the assay: directly interferes with the assay
